In PubChem BioAssay AID493014 (National Center for Advancing Translational Sciences (NCATS), 2011):
The list shows a part of the results. These are further read-outs of the screen, such as a control signal, another cell line or another target. No call is given for them. The list favours compounds with an active or inconclusive main result. Potencies come from curve fits of mixed quality, noted in brackets.

Test: qHTS Assay to Find Inhibitors of Chronic Active B-Cell Receptor Signaling
Conditions: ABC-DLBCL IkBa-CBG/CBR reporter, luminescence ratio (green luciferase fused to IkBa over red control in TMD8 lymphoma cells), 4 h
Summary of the method: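 Compounds up to 46 uM were incubated four hours with TMD8 cells whose green CBG68 luciferase is fused to IkappaBalpha; red CBR luminescence normalised the signal, and concentration-effect curves were fitted to fusion, red and ratio data.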

[1] = measured here: CBR red luminescence, cell number
[2] = measured here: IkBa-CBG green luminescence

Compound | AC50 [1] | AC50 [2]
CC1CC(C)CN(C(=O)CNC(=O)c2ccc3ccccc3c2)C1 (centres undefined) | 2.82 µM [rising, full curve] | –
O=C(NCc1ccccc1Cl)C(=O)NCC1OCCN1S(=O)(=O)c1ccc(F)cc1 (centres undefined) | 4.47 µM [falling, partial curve, poor fit] | –
COc1ccc(CNc2nc(NCc3ccc(OC)cc3)n(C(=O)c3ccccc3[N+](=O)[O-])n2)cc1 | 31.6 µM [rising, single point] | –
COc1cccc(/C=N/NC(=S)NCc2ccco2)c1OC | 12.6 µM [falling, partial curve, poor fit] | –
COC(=O)c1ccc(COC(=O)c2c(C)nn(Cc3ccccc3Cl)c2Cl)o1 | 29.1 µM [falling, single point] | –
CCC(CO)Oc1cc(NC(=O)Cc2ccccc2)c2ncn(C(C)C)c2c1 (centres undefined) | 6.51 µM [rising, single point] | –
Cc1cccnc1NC(=O)c1ccc(NS(=O)(=O)/C=C/c2ccccc2)cc1 | 29.1 µM [falling, single point] | –
Nc1ncnc2c1ncn2[C@@H]1O[C@H](COP(=O)(O)O)[C@@H](O)[C@H]1O | 14.1 µM [rising, partial curve] | 20 µM [falling, partial curve]
C=CCn1c(SCc2nnc(-c3ccccc3)o2)nnc1C(O)c1ccccc1 (centres undefined) | 11.6 µM [rising, partial curve, poor fit] | –
Cc1ccc(NC(=O)CCN2C(=O)c3ccccc3C2=O)cc1C | 2.51 µM [rising, partial curve, poor fit] | –
CN(C)CCN(C(=O)c1ccc(S(=O)(=O)N(C)C)cc1)c1nc2cc3c(cc2s1)OCCO3 | 15.8 µM [falling, single point] | –
Cc1ccc(C(=O)Nc2nnc(S(=O)(=O)Nc3ccccc3C)s2)cc1C | 11.2 µM [falling, single point] | –
O=C(NNC(=O)c1cccc(-n2cnnn2)c1)c1ccccc1 | 25.1 µM [falling, single point] | –
COc1ccccc1-c1coc2cc(O)cc(O)c2c1=O | 0.82 µM [rising, full curve, poor fit] | –
CCOC(=O)c1c2ccc(OCC(=O)N/N=C/c3ccc(C)cc3)cc2n2ccccc12 | 11.2 µM [rising, partial curve, poor fit] | –
CC(C)[C@H](NC(N)=O)C(=O)Nc1ccc(F)c(Cl)c1 | 35.5 µM [rising, single point] | –
O=C(c1cc(-c2cccs2)on1)N1CCN(c2ccccc2)CC1 | 12.6 µM [falling, partial curve, poor fit] | –
CC(C)COc1cccc(C(=O)Nc2ccc(CN3CCOCC3)cc2)c1 | 12.6 µM [falling, partial curve] | –
CCCCNC(=S)NNC(=O)c1c(Cl)c(C)nn1C | 23.1 µM [rising, single point] | –
O=C(Nc1cccc2ccccc12)c1ccc(OC(=S)N2CCOCC2)cc1 | 0.447 µM [falling, full curve] | –
O=C(/C=C/c1ccc2c(c1)OCCO2)c1ccc(O)cc1 | 12.6 µM [falling, partial curve] | –

Some of these compounds in order of count of non-hydrogen atoms, descending.
Compound | AC50 [1] | AC50 [2]
CN(C)CCN(C(=O)c1ccc(S(=O)(=O)N(C)C)cc1)c1nc2cc3c(cc2s1)OCCO3 | 15.8 µM [falling, single point] | –
O=C(NCc1ccccc1Cl)C(=O)NCC1OCCN1S(=O)(=O)c1ccc(F)cc1 (centres undefined) | 4.47 µM [falling, partial curve, poor fit] | –
C=CCn1c(SCc2nnc(-c3ccccc3)o2)nnc1C(O)c1ccccc1 (centres undefined) | 11.6 µM [rising, partial curve, poor fit] | –
O=C(Nc1cccc2ccccc12)c1ccc(OC(=S)N2CCOCC2)cc1 | 0.447 µM [falling, full curve] | –
Cc1ccc(C(=O)Nc2nnc(S(=O)(=O)Nc3ccccc3C)s2)cc1C | 11.2 µM [falling, single point] | –
Cc1ccc(NC(=O)CCN2C(=O)c3ccccc3C2=O)cc1C | 2.51 µM [rising, partial curve, poor fit] | –
Nc1ncnc2c1ncn2[C@@H]1O[C@H](COP(=O)(O)O)[C@@H](O)[C@H]1O | 14.1 µM [rising, partial curve] | 20 µM [falling, partial curve]
COc1ccccc1-c1coc2cc(O)cc(O)c2c1=O | 0.82 µM [rising, full curve, poor fit] | –
CCCCNC(=S)NNC(=O)c1c(Cl)c(C)nn1C | 23.1 µM [rising, single point] | –

(further entries)

Compound | AC50 [1] | AC50 [2]
COc1ccc(CN(Cc2cccnc2)C(=S)NCCc2ccccc2)cc1OC | 11.2 µM [falling, partial curve] | –
CN(C)CCCN(Cc1cc2cc3c(cc2[nH]c1=O)OCO3)C(=S)NCc1ccco1 | 7.94 µM [falling, partial curve, poor fit] | –
Cc1cccc(Oc2ccc(N)cc2)c1 | 6.51 µM [falling, single point] | –
Cc1ccsc1/C=N/Nc1ncnc2nc[nH]c12 | 6.31 µM [falling, full curve] | –
Cc1cccc(NC(=O)c2ccoc2C)n1 | 6.51 µM [rising, partial curve, poor fit] | –
COc1ccc(Nc2ccc(Cl)cc2)c(C(=O)O)c1 | 18.4 µM [falling, single point] | –
Cc1nnc(NC(=O)c2cc3ccccc3o2)s1 | 6.31 µM [falling, partial curve, poor fit] | –
O=C(Nc1ccccc1)Nc1cccc2ccccc12 | 0.355 µM [falling, full curve, poor fit] | –
C[N+]12CCC(CC1)C(OC(=O)C(O)(c1ccccc1)c1ccccc1)C2 (centres undefined) | 3.98 µM [falling, single point] | –
O=C(NCCC1=CCCCC1)NC12CC3CC(CC(C3)C1)C2 | 29.1 µM [rising, single point] | –
COC(=O)C1=C(C(=O)c2ccccc2)C(c2ccc(O)c(OC)c2)n2nnnc2N1 (centres undefined) | 0.82 µM [rising, full curve, poor fit] | –
N#Cc1nc(-c2ccco2)oc1NCCc1ccccc1 | 6.51 µM [rising, full curve] | –
O=C(NCc1ccccc1F)Nc1ccc([N+](=O)[O-])cc1 | 10 µM [falling, partial curve] | –
COc1ccc(C(=O)NCCCN2CCOCC2)cc1S(=O)(=O)N1CCCc2ccccc21 | 35.5 µM [rising, single point] | –
COc1ccc(-c2cc(-c3cc(OC)ccc3O)[nH]n2)cc1 | 8.2 µM [falling, partial curve, poor fit] | –
c1cncc(C2Nc3ccccc3-c3nc4ccccc4n32)c1 (centres undefined) | 3.66 µM [falling, partial curve, poor fit] | –
COC(=O)NNC(=S)Nc1cc(OC)ccc1OC | 6.51 µM [falling, single point] | –
CC(=O)c1c(C)[nH]c(C(=O)OCC(=O)Nc2cc(S(=O)(=O)N3CCCCC3)ccc2C)c1C | 20.6 µM [falling, single point] | –
Fc1ccccc1C1c2cccn2CCN1C(=S)Nc1cccc(Br)c1 (centres undefined) | 22.4 µM [falling, single point] | –
COc1cccc(CNCc2ccc(OC)c3ccccc23)c1OC | 35.5 µM [falling, single point] | –
NC(=O)C1CCN(C2=C(Cl)C(=O)c3ccccc3C2=O)CC1 | 12.6 µM [falling, partial curve, poor fit] | 15.8 µM [rising, partial curve, poor fit]
